PubChem BioAssay AID652259 | Drosophila RNAi Screening Center, 2013
In all, the deposit lists about 22,000 reagents; this is an unselected part of those that have a named target and a result. Of all reagents, 233 (1.1%) are marked active. 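Light values are raw, unnormalised plate reads; the ratio scores behind the reporter calls were not deposited.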 A number with no mark means an inactive call. Not given: the amount of reagent, the time to read-out, the dose of the treatment.

Purpose: 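Genome-wide hunt for genes that control Wingless pathway activity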 (primary screen)
System: Drosophila clone 8 imaginal disc epithelial cells
Knock-down reagent: long dsRNA against Drosophila genes
Conditions: pathway stimulated by co-transfected Wingless expression plasmid
Measured: 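Firefly luciferase from a tcf-site Wingless reporter, measured alongside co-transfected Renilla luciferase that tracks transfection; pathway stimulated by a Wingless plasmid; the firefly-to-Renilla ratio is not deposited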
Direction: firefly reporter light: higher = more Wg reporter light, before normalisation; Renilla control light: higher = more transfected or surviving cells
Call rule: 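Strong candidates differ from their plate mean by at least two out of four per-plate statistical tests; weak candidates meet just one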
Calls: active = candidate regulator (raises or lowers reporter); inactive = not a candidate

Catsup (Catecholamines up) [DRSC03288] → firefly reporter light, replicate 1: 2697; firefly reporter light, replicate 2: 3889; Renilla control light, replicate 1: 707; Renilla control light, replicate 2: 1811
inaF-A [DRSC19660] → firefly reporter light, replicate 1: 11072; Renilla control light, replicate 1: 7720
Mgat4a [DRSC09326] → firefly reporter light, replicate 1: 3501; firefly reporter light, replicate 2: 7.47e5; Renilla control light, replicate 1: 2288; Renilla control light, replicate 2: 3.51e5
Mgat4a [DRSC11070] → firefly reporter light, replicate 1: 6147; Renilla control light, replicate 1: 3209
nompC (no mechanoreceptor potential C) [DRSC03581] → firefly reporter light, replicate 1: 1952; firefly reporter light, replicate 2: 6169; Renilla control light, replicate 1: 960; Renilla control light, replicate 2: 1040
CG15734 [DRSC19701] → firefly reporter light, replicate 1: 17769; Renilla control light, replicate 1: 9801
lncRNA:CR43434 (long non-coding RNA:CR43434) [DRSC13766] → firefly reporter light, replicate 1: 3168; Renilla control light, replicate 1: 1106
CG8419 [DRSC03087] → firefly reporter light, replicate 1: 2684; firefly reporter light, replicate 2: 5421; Renilla control light, replicate 1: 1526; Renilla control light, replicate 2: 3777
CG13786 [DRSC02289] → firefly reporter light, replicate 1: 2914; firefly reporter light, replicate 2: 6137; Renilla control light, replicate 1: 840; Renilla control light, replicate 2: 2502
hid (head involution defective) [DRSC11316] → firefly reporter light, replicate 1: 6051; Renilla control light, replicate 1: 2921
CG5062 [DRSC18385] → firefly reporter light, replicate 1: 25826; Renilla control light, replicate 1: 11904
CG13800 (retired record) [DRSC08334] → firefly reporter light, replicate 1: 6720; Renilla control light, replicate 1: 2621
Cyp313a3 (Cytochrome P450 313a3) [DRSC16626] → firefly reporter light, replicate 1: 17984; Renilla control light, replicate 1: 5505
Vps13D (Vacuolar protein sorting 13D) [DRSC09818] → firefly reporter light, replicate 1: 5136; Renilla control light, replicate 1: 2112
Vps13D (Vacuolar protein sorting 13D) [DRSC09819] → firefly reporter light, replicate 1: 6439; Renilla control light, replicate 1: 2298
Mrp5 (Multidrug resistance protein 5) [DRSC15597] → firefly reporter light, replicate 1: 11644; Renilla control light, replicate 1: 3705
Mrp5 (Multidrug resistance protein 5) [DRSC15598] → firefly reporter light, replicate 1: 21107; Renilla control light, replicate 1: 5363
mRpL40 (mitochondrial ribosomal protein L40) [DRSC15749] → firefly reporter light, replicate 1: 15709; Renilla control light, replicate 1: 3449
SP2353 [DRSC07545] → reporter change call, replicate 1: Wg reporter activity raised (active); firefly reporter light, replicate 1: 13568; Renilla control light, replicate 1: 1202
gnu (giant nuclei) [DRSC10497] → firefly reporter light, replicate 1: 3464; Renilla control light, replicate 1: 1618
Snx16 (Sorting nexin 16) [DRSC06984] → firefly reporter light, replicate 1: 4817; Renilla control light, replicate 1: 2029
Vps60 (Vacuolar protein sorting 60) [DRSC10610] → firefly reporter light, replicate 1: 10953; Renilla control light, replicate 1: 4004
CG6565 [DRSC02970] → firefly reporter light, replicate 1: 17061; Renilla control light, replicate 1: 5480
CG4483 [DRSC10426] → firefly reporter light, replicate 1: 3744; Renilla control light, replicate 1: 899
amon (amontillado) [DRSC13784] → firefly reporter light, replicate 1: 3124; Renilla control light, replicate 1: 1573
amon (amontillado) [DRSC16900] → firefly reporter light, replicate 1: 7472; Renilla control light, replicate 1: 3216
CG43347 [DRSC17982] → firefly reporter light, replicate 1: 19713; Renilla control light, replicate 1: 8682
CG43347 [DRSC18446] → firefly reporter light, replicate 1: 30851; Renilla control light, replicate 1: 10742
CG43347 [DRSC22656] → firefly reporter light, replicate 1: 5.10e5; firefly reporter light, replicate 2: 4.47e5; Renilla control light, replicate 1: 1.24e5; Renilla control light, replicate 2: 368
CG43347 [DRSC22682] → firefly reporter light, replicate 1: 8.40e5; firefly reporter light, replicate 2: 8.59e5; Renilla control light, replicate 1: 1.55e5; Renilla control light, replicate 2: 1.56e5
Cwc25 [DRSC00545] → firefly reporter light, replicate 1: 2412; firefly reporter light, replicate 2: 8551; Renilla control light, replicate 1: 809; Renilla control light, replicate 2: 2604
PIG-U (Phosphatidylinositol glycan anchor biosynthesis class U) [DRSC02193] → firefly reporter light, replicate 1: 5147; Renilla control light, replicate 1: 1484
